No constants are given. Whether binding was seen depends on the method and setting. Some results given as binding are weak or reduced against the parent protein; the word gives no strength.
Legend:
[1] = molecular target: T1, SC4 hydrophobin of Schizophyllum commune (Schizophyllum commune) (UniProt P16934); test: enzyme on hydrophobin-coated microtiter wells, washed; luminescence with ATP
T1 sequence: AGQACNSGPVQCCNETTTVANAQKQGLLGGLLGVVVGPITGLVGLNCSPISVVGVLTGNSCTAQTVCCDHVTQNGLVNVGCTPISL

Amino acid sequences for entries named in this document (tags omitted). Residues count along the entry.
UniProt P08659: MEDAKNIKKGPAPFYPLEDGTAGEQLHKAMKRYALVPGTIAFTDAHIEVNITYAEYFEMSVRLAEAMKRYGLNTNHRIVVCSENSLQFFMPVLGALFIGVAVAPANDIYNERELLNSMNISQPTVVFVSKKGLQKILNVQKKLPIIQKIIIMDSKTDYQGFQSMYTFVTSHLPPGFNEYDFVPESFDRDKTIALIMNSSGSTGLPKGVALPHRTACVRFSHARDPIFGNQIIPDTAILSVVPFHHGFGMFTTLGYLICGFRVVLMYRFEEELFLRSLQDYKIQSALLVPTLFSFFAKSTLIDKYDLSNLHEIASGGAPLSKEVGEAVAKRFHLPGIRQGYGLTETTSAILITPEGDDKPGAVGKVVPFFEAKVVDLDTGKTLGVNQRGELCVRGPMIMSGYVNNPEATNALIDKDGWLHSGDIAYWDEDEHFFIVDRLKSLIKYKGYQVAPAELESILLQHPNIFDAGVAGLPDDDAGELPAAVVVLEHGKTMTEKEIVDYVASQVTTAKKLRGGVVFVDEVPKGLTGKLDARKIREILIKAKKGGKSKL
UniProt P13006, residues 23-605: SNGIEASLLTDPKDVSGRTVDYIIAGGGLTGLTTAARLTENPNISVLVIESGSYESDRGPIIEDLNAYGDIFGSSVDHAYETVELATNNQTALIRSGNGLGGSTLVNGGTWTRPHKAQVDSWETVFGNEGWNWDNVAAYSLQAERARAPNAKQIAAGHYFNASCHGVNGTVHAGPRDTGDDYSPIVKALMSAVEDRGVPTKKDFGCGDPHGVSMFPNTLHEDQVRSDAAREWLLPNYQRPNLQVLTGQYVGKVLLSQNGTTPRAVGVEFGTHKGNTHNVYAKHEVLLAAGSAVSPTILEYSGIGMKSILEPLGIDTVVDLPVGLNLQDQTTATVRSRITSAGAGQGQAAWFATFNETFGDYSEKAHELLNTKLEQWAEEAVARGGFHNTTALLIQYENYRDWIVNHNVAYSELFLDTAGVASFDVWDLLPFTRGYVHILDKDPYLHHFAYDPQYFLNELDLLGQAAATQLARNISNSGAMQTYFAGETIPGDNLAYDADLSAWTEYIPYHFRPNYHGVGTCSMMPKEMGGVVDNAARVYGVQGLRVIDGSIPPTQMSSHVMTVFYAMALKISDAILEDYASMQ
UniProt P00433, residues 31-338: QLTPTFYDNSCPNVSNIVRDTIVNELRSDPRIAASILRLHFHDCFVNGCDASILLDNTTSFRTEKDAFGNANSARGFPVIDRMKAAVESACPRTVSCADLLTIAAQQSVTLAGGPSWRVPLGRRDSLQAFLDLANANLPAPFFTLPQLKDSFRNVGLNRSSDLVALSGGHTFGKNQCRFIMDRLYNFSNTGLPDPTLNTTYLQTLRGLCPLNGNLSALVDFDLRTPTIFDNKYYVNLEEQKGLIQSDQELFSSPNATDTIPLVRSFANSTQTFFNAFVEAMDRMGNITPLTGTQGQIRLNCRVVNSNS
UniProt P05187, residues 23-506: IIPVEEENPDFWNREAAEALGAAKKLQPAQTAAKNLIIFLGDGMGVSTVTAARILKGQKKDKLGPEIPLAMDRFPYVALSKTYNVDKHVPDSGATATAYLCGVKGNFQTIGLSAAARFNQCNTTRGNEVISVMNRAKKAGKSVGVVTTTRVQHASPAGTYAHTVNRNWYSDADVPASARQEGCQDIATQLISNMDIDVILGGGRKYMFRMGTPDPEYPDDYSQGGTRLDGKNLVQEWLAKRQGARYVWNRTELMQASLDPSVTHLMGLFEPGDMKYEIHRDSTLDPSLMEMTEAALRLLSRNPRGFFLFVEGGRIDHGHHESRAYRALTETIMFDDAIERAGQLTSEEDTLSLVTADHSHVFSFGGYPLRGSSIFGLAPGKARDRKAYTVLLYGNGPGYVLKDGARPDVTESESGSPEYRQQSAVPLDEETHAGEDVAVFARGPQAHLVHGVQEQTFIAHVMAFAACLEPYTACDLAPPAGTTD

[2] = molecular target: T2, SC3 hydrophobin of Schizophyllum commune (Schizophyllum commune) (UniProt P16933); test: as above
T2 sequence (looked up): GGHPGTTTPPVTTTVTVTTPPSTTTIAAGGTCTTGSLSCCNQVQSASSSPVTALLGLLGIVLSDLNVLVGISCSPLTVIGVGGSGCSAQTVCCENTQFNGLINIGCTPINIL

[3] = molecular target: T1, SC4 hydrophobin of Schizophyllum commune (Schizophyllum commune); test: hydrophobin-coated colloidal TEFLON added to enzyme solution; circular dichroism and centrifugation
[4] = molecular target: T2, SC3 hydrophobin of Schizophyllum commune (Schizophyllum commune); test: as above
[5] = molecular target: T1, SC4 hydrophobin of Schizophyllum commune (Schizophyllum commune); test: enzyme on hydrophobin-coated TEFLON sheet, rinsed; o-dianisidine colour reaction stops on removal of the sheet
[6] = molecular target: T2, SC3 hydrophobin of Schizophyllum commune (Schizophyllum commune); test: as above
[7] = molecular target: T2, SC3 hydrophobin of Schizophyllum commune (Schizophyllum commune); test: enzyme on SC3-coated TEFLON, rinsed; activity by spectrophotometry, constant after removal of the surface
[8] = molecular target: T1, SC4 hydrophobin of Schizophyllum commune (Schizophyllum commune); test: enzyme on hydrophobin-coated microtiter wells, washed; chemiluminescent substrate
[9] = molecular target: T2, SC3 hydrophobin of Schizophyllum commune (Schizophyllum commune); test: as above

Measured: binding

firefly luciferase (Roche, cat no. 411523) (from UniProt P08659 1-550) (enzyme)
binds: [1] | [2]

glucose oxidase from Aspergillus niger (from UniProt P13006 23-605) (enzyme)
binds: [3] | [4] | [5] | [6] | [7]

horseradish peroxidase (from UniProt P00433 31-338) (enzyme)
binds: [5] | [6] | [7]

human placental alkaline phosphatase (from UniProt P05187 23-506) (enzyme)
binds: [8] | [9]
